## Percent effect of library compounds

Amino acid sequences for entries named in this document (tags omitted).
UniProt P9WNZ1, whole entry: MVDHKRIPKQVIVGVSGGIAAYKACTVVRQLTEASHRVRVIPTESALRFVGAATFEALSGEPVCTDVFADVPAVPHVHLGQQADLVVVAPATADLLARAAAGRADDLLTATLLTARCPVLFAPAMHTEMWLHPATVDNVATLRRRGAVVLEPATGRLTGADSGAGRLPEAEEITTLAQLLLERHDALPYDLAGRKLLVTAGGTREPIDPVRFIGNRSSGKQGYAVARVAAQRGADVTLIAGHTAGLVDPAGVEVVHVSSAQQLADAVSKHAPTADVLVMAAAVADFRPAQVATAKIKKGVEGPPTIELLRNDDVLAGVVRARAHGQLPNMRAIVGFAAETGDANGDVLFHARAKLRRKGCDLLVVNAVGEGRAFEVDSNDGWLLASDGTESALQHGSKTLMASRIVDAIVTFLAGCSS

Toxoplasma: 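Assay of Toxoplasma gondii numbers, read through their beta-galactosidase reporter with a colour substrate. Tested at 10 µM. The record gives no direction; the compounds picked for IC50 retests had high values, so higher reads as fewer parasites. About 67,000 compounds were tested under these conditions; 0.38% (about 260) showed 50% or more at least once.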
CoaBC: 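Coenzyme A biosynthesis protein CoaBC, Mycobacterium tuberculosis (UniProt P9WNZ1). Enzyme assay of CoaBC with a phosphate dye (Biomol Green) read at 650 nm. Compounds at 30 µM. Direction is inferred from only a few compounds that gave an IC50; most scored high, so higher reads as stronger inhibition. Most strong results did not repeat in a second test. About 67,000 compounds were tested under these conditions; 0.06% (about 40) showed 50% or more at least once.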

Values are the deposited “Percent Effect”, in %. The controls that fix the scale are not given in the record; negative values are as filed. The compounds are a random part of those screened. Two or more numbers in one place are separate tests of the same structure; such repeats can differ widely. A dash means the value is not listed here; it may have been measured.

| structure | Toxoplasma | CoaBC |
|---|---|---|
| `CN1C[C@@H](C(=O)NC2CCCC2)[C@@]2(COc3ccc(F)cc3C2=O)C1` | -19.53 | 4.686 |
| `CCc1cnc(NCC2OCCc3ccccc32)nc1` (stereo not shown) | 1.758 | 6 |
| `CCN1CC2(CC1=O)CN(C(C)=O)CCN(C(=O)NC(C)C)C2` (stereo not shown) | -22.84 | 4 |
| `CS(=O)(=O)c1ccc(-c2nc(C(=O)N3CCCC3)n3ccccc23)cc1` | -5.117 | 6.842 |
| `COc1ccc(CN2CC(=O)N(c3ccc(C)cc3)CC2C)cc1O` (stereo not shown) | -0.3706 | -0.4902 |
| `O=C(O)C(F)(F)F.[H][C@@]12COC[C@]1(COCC(=O)N(C)C)CN(Cc1sccc1C)C2` | 5.05 | - |
| `O=C(O)C(F)(F)F.O=C(O)C(F)(F)F.O[C@H]1CCN(CC2CC2)[C@H]1Cc1ccncc1` | 1.968 | - |
| `Cc1cnn(C(C)C2CC2)c1NC(=O)c1ccc(Cn2cnnn2)cc1` (stereo not shown) | -10.57 | 7.143 |
| `Cc1nn(C)c2c(=O)n(Cc3ccc(Cl)cc3)nnc12` | 71.45 | -10.16 |
| `Cc1cc(C)n(C2CCCN(C(=O)Cc3csc(C)n3)C2)n1` (stereo not shown) | - | -6.684 |
| `NS(=O)(=O)CCNC(=O)c1ccc(OCc2ccccc2)nc1` | -1.018 | 15.08 |
| `Cc1nc(N2CCOCC2)nc2c1CCN(c1nccs1)CC2` | -17.5 | 10.83 |
| `CN1C[C@H]2CN(C(=O)c3ccc4c(c3)OCO4)CCN2C1=O` | - | -11.51 |
| `Cc1ccc(NCCCNC(=O)C2CC3(CCNCC3)CN2C)nc1` (stereo not shown) | 1.737 | -21.81 |
| `O=C(Cn1nnc(-c2ccc(F)cc2)n1)N1CCOCC(O)C1` (stereo not shown) | -13.13 | - |
| `O=S(=O)(C1CC1)N1CCC2(CCN(Cc3nccs3)CC2)CC1` | - | 5.123 |
| `O=S(=O)(c1ccc(C(F)(F)F)cc1)N1CCC(OCc2ccccn2)C1` (stereo not shown) | 1.484 | - |
| `O=C([C@H]1C[C@@H]2CCN(c3cccc(F)c3)C[C@H]2O1)N1CCCC1` | - | 17.01 and 28.73 |
| `CCn1cc(N2Cc3nc(N4CCC(O)CC4)ncc3C2=O)cn1` | -4.646 | -23.79 |
| `CS(=O)(=O)N1C[C@@H]2OCC(=O)N(CC3CC3)[C@@H]2C1` | - | -11.06 |
| `Cc1oc(-c2ccco2)nc1CC(=O)N1CCC(C(O)C(F)(F)F)CC1` (stereo not shown) | -3.603 | 4.615 |
| `CN(C)c1ncccc1CNC(=O)N1CCN(C)c2ccccc2C1` | 4.201 | 2.066 |
| `CCc1noc(C(C)N2CCN(Cc3noc(C4CC4)n3)CC2)n1` (stereo not shown) | -9.461 | 3.406 |
| `CC(=O)N[C@@H]1Cc2ccccc2[C@H]1Nc1cc(C2CC2)ncn1` | 2.608 | 10 |
| `CN(Cc1c(F)cccc1Cl)C(=O)Cn1cnc(C#N)n1` | -5.492 | 4.369 |
| `COCC(=O)NC1(c2cccc(C(F)(F)F)c2)CCC1` | -15.56 | 2.525 |
| `CCS(=O)(=O)Nc1cnn(Cc2cccc(C)c2)c1` | 1.442 | -3.614 |
| `CC(=O)c1cccc(NC(=O)N2CCCCC2CN2CCCC2=O)c1` (stereo not shown) | 0 | 7.661 |
| `O=C(CN1CC(c2nc(Cc3ccccc3)no2)C1)NCC1CCCO1.O=C(O)C(=O)O` (stereo not shown) | -11.97 | - |
| `[H][C@@]12CCCN1C[C@H](CCSC)N(Cc1coc3ccc(C)cc3c1=O)C2` | 13.79 | - |
| `COCC(O)CNc1ccc(C#N)cc1C(F)(F)F` (stereo not shown) | -32.72 | 2.525 |
| `c1ccc(CN2CCN3C[C@H](Oc4cncnc4)C[C@H]3C2)nc1` | - | -2.228 |
| `CN(C)Cc1nnc(C2CCN(c3nccc(N)n3)CC2)n1C1CC1` | 0 | -10.13 |
| `Cc1c(NC(=O)CN2CCN(C3CCCC3)C(=O)C2)cnn1C` | - | -11.62 |
| `CC(C)CN1CCC2(CCN(Cc3ccsc3)CC2)C1=O` | 5.702 | 1.935 |
| `Cc1ccc(-n2nc(C)c3c(C)cc(OCC(=O)NC(C)C)nc32)cc1` | 1.211 | 0.1318 |
| `CCNc1ccnc(NC2CCN(C(=O)c3ccc(C)cc3)CC2)n1` | -13.94 | 2.174 |
| `O=C(O)C(F)(F)F.[H][C@]12CCN(c3ncc(CC)cn3)CC[C@@]1([H])S(=O)(=O)N(CCC(C)C)C2` | 4.433 | - |
| `CCCn1nc2c(cc1=O)CN(Cc1cc(C)no1)CC2` | 2.367 | 7.863 |
| `CN(Cc1ccccc1)S(=O)(=O)N1C[C@H](C2CC2)[C@@H](N)C1` | -17.85 | -26.04 |
| `O=C(C(c1ccccc1)S(=O)(=O)c1ccccn1)N1CCCCC1` (stereo not shown) | 9.675 | 12.5 |
| `COc1cc(OC)c(CNC(=O)NCC(=O)N2CCCC2)c(OC)c1` | 9.826 | 6.695 |
| `O=C(NCCC(=O)N1CCCc2ccccc21)c1c(O)cc(F)cc1F` | 34.2 | -1.795 |
| `COCC(=O)N1CCN(C(=O)c2scnc2C)CC1` | -0.8547 | 6.883 |
| `Cc1nc(C)n(C2CCCN(C(=O)c3cn4c(C)cccc4n3)C2)n1` (stereo not shown) | 3.474 | -4.968 |
| `Oc1cccc(CNCc2ccc(-n3cncn3)nc2)c1` | -14.14 | 2.138 |
| `CC(=O)Nc1nc(C2CCN(C(=O)c3cncs3)CC2)cs1` | 8.442 | 0 |
| `Cc1cc(N2CCC(C(=O)O)(n3ccc(C(C)C)n3)CC2)nc(N)n1` | -34.47 | -1.279 |
| `COc1ccc(CN2CCC3(CC2)CN(c2ccccn2)CCO3)cc1.O=C(O)C(F)(F)F.O=C(O)C(F)(F)F` | 8.981 | - |
| `CCn1cc(CN2C[C@@H]3CCCN3C[C@@H]2CCSC)cn1` | - | 3.841 |
| `Cc1ccc(-c2[nH][nH]c(=O)c2CCN)cc1` | 2.559 | -2.368 |
| `COCCN(C)C[C@@H]1CN(C(=O)NC2CCCCC2)C[C@@H]1CO` | 1.794 | 4.904 |
| `CCS(=O)(=O)N1CCC2(CC1)c1ncc(-c3cccnc3)n1CCN2C` | -0.2078 | 0.4938 |
| `COCCOc1ccnc(-c2noc([C@@H]3CCCN3C3CCC3)n2)c1` | -1.264 | 2.87 |
| `CC(c1ccccc1)N(C)C(=O)Cn1cc(NC(=O)C(C)(C)C)cn1` (stereo not shown) | 1.477 | -11.28 |

Source: ChEMBL document CHEMBL3988442, “University of Dundee, Small-Polar-MMV Screening Library” (2021).